Measurements as given in article doi:10.1101/2021.02.11.430773.
Like-named read-outs stand apart in the source and are kept apart here. Results are given in words; binding and its absence hold for the method and conditions named. Binding seen in cells or lysates may run through a third protein. Some binding calls cover weakened binding; strength is not graded here.

Chains of the proteins cited; added tags and fusions are not shown. Residues count along the entry.
UniProt P55258: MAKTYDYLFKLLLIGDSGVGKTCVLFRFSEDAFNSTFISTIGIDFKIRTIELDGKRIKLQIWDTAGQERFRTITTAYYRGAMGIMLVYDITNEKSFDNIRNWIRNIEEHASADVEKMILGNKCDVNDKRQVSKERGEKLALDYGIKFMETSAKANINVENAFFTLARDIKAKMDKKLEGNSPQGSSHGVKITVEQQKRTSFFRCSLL
UniProt Q01968, residues 539-901: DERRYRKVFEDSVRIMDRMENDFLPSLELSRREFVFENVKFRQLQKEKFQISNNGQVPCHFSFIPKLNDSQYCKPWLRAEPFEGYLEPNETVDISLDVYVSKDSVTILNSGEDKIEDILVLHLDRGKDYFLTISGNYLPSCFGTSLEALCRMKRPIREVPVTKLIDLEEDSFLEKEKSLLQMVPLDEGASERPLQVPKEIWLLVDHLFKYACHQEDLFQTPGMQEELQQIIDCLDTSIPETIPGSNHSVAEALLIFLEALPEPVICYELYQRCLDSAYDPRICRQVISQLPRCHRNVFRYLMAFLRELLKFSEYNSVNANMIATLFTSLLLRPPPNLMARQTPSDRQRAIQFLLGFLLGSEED
UniProt Q9JHG7: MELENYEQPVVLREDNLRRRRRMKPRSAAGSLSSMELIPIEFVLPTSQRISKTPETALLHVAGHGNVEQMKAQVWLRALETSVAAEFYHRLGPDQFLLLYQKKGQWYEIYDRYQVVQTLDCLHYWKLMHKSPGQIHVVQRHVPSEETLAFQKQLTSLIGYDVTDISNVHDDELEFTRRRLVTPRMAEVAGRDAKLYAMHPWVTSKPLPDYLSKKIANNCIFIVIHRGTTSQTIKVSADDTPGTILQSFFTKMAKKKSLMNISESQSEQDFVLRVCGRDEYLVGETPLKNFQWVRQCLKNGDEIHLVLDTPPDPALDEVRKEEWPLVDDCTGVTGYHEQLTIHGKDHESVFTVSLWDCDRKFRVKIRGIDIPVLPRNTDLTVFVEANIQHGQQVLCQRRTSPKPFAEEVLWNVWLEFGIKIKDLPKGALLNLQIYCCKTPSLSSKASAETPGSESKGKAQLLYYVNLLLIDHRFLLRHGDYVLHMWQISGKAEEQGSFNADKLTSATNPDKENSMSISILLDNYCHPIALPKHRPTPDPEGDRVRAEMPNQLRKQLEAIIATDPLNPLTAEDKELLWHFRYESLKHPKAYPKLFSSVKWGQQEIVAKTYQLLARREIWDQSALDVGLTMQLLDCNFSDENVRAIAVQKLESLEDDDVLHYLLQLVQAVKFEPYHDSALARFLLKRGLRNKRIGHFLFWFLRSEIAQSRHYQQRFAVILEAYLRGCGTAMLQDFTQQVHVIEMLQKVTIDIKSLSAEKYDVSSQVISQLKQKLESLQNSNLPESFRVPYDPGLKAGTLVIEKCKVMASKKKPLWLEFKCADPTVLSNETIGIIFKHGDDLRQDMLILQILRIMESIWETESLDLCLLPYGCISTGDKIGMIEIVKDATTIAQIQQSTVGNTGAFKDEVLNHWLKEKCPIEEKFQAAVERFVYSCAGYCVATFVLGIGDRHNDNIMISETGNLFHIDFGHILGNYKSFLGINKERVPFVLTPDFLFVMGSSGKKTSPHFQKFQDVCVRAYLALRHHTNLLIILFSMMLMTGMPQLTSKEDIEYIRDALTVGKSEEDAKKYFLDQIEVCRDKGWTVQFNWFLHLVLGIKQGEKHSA

How the values were obtained:
Assay in all cases: pull-down
[1] = target: GST-Rab8a (UniProt P55258)
[2] = target: GST-Rab8a (UniProt P55258); remark: listed apart in the source
[3] = target: GST-fusion protein of the Rab binding domain of OCRL (amino acids 539-901) (UniProt Q01968)

Row | binding [1] | binding [2] | binding [3] | Substance
1 | binds | binds | – | PI3Kγ (p110 catalytic subunit) (from UniProt Q9JHG7 1-1102) (enzyme)
2 | – | – | binds | Rab8a (from UniProt P55258 1-207)
